The supplement of paper PMC10849652
This is one part of the list.

The chains behind the UniProt entries cited, without tags or fusion partners. Where a name states a change or a piece, a line headed by the entry shows the natural chain unless it says otherwise.
UniProt Q8IWV8: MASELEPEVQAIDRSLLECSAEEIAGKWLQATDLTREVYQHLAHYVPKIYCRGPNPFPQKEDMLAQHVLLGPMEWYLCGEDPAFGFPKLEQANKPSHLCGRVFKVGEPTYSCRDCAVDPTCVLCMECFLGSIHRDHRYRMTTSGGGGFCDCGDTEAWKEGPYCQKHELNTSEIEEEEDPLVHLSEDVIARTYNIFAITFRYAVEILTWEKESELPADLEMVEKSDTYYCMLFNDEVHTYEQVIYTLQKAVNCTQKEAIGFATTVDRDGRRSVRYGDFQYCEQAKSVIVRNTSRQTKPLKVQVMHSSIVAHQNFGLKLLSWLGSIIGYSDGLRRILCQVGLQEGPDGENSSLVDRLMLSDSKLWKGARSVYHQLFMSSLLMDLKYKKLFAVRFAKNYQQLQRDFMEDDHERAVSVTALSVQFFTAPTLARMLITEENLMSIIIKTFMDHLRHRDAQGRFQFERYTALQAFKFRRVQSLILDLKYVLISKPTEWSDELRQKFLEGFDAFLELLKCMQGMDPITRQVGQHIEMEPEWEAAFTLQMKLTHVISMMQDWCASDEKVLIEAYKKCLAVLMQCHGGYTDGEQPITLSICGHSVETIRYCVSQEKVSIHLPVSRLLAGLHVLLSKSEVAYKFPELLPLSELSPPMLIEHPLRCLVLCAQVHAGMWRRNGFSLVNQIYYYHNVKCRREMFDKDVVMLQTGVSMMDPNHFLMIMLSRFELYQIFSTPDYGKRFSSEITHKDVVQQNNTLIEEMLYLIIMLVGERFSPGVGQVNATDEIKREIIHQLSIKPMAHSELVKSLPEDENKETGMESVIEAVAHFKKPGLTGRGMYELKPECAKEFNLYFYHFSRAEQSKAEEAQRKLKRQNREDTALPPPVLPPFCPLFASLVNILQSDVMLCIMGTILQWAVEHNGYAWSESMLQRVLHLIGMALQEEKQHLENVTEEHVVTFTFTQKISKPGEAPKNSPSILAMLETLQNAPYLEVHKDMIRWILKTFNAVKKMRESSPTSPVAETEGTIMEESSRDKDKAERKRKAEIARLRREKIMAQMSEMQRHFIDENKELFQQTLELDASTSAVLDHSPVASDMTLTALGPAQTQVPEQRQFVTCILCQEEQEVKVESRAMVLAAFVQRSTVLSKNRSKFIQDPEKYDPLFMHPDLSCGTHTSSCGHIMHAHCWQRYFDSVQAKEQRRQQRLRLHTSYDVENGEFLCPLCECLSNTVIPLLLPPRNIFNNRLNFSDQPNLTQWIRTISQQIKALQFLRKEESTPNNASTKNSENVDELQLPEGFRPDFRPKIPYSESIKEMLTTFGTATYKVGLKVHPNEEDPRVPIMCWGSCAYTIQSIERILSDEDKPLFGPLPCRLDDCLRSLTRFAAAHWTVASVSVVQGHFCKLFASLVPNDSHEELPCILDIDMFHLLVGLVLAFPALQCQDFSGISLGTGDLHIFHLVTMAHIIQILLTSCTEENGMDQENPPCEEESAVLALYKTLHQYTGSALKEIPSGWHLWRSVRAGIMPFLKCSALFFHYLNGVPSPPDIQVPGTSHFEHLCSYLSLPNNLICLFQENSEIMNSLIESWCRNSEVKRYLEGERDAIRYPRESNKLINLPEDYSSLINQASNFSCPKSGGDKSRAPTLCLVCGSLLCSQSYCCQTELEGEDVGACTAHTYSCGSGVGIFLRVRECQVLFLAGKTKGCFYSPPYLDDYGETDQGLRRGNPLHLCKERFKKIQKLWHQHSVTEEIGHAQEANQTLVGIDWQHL
UniProt Q70J99: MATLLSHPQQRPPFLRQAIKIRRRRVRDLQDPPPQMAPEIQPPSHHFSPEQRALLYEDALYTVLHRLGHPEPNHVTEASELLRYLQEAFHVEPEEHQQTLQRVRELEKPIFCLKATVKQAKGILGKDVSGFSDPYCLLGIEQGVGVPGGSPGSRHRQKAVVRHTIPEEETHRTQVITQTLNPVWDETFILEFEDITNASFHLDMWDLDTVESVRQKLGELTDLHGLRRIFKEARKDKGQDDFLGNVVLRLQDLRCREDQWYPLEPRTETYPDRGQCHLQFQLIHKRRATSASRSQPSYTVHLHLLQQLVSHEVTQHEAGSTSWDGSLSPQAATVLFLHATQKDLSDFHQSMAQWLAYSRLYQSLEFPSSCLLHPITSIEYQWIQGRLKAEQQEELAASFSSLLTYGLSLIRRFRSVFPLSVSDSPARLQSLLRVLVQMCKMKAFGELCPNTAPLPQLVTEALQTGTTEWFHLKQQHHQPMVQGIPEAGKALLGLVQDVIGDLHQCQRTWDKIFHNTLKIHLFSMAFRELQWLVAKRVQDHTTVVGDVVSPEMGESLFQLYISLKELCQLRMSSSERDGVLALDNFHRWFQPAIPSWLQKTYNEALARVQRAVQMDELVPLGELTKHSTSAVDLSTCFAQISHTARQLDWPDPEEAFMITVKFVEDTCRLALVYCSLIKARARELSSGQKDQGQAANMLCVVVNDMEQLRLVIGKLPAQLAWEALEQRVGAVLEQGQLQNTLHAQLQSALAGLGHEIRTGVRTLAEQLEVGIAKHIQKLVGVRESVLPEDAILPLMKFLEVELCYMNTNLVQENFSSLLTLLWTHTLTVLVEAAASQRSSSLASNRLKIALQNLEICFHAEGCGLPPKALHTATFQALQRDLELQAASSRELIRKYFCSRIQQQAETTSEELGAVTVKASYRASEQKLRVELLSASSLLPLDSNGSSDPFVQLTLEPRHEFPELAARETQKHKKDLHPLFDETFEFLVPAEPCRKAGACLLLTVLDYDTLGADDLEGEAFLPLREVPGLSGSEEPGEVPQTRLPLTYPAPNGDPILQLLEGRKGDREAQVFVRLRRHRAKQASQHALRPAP
UniProt P63027, whole entry, looked up: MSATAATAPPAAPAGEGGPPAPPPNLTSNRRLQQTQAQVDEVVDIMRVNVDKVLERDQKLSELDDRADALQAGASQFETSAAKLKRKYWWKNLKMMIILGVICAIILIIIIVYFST
UniProt P17480: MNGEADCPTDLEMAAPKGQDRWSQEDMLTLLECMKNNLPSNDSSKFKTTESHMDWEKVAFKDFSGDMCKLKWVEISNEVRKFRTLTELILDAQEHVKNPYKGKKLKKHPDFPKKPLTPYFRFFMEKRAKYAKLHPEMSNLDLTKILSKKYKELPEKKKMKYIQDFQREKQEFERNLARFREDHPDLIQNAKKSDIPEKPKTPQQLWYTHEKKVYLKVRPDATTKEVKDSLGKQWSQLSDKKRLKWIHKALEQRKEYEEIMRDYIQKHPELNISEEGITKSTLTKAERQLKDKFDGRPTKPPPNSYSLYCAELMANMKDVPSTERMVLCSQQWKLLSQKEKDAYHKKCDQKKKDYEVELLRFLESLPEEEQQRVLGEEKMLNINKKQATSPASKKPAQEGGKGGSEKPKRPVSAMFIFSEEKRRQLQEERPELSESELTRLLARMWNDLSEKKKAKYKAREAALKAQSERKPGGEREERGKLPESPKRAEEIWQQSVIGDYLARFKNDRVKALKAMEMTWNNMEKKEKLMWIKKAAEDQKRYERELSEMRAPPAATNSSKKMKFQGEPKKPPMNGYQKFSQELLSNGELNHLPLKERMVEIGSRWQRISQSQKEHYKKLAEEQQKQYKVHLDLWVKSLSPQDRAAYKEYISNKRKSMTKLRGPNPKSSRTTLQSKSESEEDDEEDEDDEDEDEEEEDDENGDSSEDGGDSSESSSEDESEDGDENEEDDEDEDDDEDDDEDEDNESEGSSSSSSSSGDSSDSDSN
UniProt Q9UDW1: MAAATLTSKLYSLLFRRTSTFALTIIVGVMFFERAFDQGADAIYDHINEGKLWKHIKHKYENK
UniProt Q9Y3C8: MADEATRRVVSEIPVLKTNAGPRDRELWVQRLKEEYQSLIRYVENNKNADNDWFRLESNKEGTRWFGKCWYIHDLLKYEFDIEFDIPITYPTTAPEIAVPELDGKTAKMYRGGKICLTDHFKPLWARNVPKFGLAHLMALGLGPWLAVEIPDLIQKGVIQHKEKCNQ
UniProt O14949: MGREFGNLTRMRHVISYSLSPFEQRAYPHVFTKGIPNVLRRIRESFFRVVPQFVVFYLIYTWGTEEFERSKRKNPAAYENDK
UniProt Q8NBZ7: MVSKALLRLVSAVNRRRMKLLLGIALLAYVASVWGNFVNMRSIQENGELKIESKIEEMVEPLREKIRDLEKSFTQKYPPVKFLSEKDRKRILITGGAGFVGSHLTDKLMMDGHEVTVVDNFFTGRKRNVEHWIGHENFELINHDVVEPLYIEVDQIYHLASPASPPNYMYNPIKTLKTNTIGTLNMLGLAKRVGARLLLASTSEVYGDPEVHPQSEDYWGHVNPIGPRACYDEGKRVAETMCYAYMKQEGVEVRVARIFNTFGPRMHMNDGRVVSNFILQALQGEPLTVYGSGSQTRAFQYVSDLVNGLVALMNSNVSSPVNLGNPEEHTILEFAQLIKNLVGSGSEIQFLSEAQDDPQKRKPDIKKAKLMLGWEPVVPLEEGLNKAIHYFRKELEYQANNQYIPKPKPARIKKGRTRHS
UniProt Q8IWV7: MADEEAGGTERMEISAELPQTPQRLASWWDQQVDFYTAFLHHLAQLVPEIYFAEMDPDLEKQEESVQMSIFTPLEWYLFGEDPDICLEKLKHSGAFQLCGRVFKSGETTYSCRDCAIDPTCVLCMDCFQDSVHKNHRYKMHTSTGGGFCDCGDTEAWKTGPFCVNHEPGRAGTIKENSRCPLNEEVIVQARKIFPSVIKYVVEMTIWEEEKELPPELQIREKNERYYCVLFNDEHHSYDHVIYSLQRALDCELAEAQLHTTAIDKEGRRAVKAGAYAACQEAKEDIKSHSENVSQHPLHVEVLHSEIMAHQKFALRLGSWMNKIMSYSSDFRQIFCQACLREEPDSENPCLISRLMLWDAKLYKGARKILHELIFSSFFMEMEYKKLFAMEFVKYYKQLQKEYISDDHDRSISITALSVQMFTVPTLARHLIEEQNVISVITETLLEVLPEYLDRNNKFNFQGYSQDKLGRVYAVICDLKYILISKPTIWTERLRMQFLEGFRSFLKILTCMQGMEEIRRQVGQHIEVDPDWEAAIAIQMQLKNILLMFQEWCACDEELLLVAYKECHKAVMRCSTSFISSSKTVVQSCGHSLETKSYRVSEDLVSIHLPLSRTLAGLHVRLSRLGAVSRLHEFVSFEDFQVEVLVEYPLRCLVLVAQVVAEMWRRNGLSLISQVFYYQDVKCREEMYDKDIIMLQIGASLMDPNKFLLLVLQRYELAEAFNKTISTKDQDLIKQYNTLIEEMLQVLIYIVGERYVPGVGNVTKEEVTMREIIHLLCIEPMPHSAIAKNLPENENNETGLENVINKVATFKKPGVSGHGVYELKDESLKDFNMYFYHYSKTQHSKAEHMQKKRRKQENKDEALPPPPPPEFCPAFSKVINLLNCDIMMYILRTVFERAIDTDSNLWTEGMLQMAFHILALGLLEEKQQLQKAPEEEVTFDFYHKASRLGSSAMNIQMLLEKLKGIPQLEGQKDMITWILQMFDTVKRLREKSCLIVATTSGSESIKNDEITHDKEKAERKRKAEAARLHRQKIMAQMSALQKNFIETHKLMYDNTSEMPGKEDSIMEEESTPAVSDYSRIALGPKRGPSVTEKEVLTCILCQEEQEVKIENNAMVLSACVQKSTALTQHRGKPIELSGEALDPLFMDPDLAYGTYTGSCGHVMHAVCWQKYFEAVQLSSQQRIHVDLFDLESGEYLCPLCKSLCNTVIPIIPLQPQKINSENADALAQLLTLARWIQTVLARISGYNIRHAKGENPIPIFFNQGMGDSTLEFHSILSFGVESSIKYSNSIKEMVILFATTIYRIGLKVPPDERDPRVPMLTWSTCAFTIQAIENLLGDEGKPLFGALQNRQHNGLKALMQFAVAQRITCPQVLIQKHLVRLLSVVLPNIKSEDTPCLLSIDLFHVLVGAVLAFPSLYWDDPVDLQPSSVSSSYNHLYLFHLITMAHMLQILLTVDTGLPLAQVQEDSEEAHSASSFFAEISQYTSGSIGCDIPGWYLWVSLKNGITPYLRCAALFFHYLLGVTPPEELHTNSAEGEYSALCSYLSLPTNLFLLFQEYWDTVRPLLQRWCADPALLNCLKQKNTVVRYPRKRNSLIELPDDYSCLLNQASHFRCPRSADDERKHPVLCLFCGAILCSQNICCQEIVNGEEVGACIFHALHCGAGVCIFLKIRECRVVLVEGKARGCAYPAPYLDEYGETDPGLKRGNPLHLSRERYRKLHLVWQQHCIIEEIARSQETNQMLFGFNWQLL
UniProt Q9Y5Z9: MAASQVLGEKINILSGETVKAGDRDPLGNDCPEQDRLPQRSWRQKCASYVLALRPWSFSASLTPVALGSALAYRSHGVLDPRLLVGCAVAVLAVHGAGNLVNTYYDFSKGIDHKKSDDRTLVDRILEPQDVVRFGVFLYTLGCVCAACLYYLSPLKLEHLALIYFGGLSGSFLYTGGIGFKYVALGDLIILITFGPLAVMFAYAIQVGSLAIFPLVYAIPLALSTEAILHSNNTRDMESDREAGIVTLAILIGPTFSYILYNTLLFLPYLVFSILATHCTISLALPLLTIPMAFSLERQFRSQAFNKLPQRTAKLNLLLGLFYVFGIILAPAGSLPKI

What was measured:
Assay in all cases: log2 fold change, soluble protein after heating vs DMSO (PISA); higher = thermal stabilisation; K562 cells, 10 uM, 30 min; active = over 0.2 and 3.5 SD of the protein, either way, in both replicates (recomputed)
[1] = compound: NC(=O)Nc1cc(-c2cccc(F)c2)sc1C(=O)N[C@H]1CCCNC1
How it was run: (§1)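 K562 cells at 2×10^6 cells/mL were treated for 30 min with 10 μM compound, and aliquots were heated for 3 min over 48°C-58°C before pooling. Extraction used PBS with 0.5% NP-40 at 4°C, and soluble protein was the supernatant after 21,000xg for 90 min, measured by TMTpro 16plex LC-MS/MS with channel sums equalised. Thermal stability values, relative to control samples and from duplicates, are log2 fold changes.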

[2] = compound: NC(=O)c1cnc(N[C@@H]2CCCC[C@@H]2N)nc1Nc1cccc(-n2nccn2)c1
How it was run: as §1

[3] = compound: NC1(c2ccc(-c3nc4ccn5c(=O)[nH]nc5c4cc3-c3ccccc3)cc2)CCC1
How it was run: as §1

[4] = compound: NCC(=O)Nc1ccc(-n2nc(C(F)(F)F)cc2-c2ccc3c(ccc4ccccc43)c2)cc1
How it was run: as §1

entinostat = compound: Nc1ccccc1NC(=O)c1ccc(CNC(=O)OCc2cccnc2)cc1 [entinostat]
How it was run: as §1

vorinostat = compound: O=C(CCCCCCC(=O)Nc1ccccc1)NO [vorinostat]
How it was run: as §1

citarinostat = compound: O=C(CCCCCCNC(=O)c1cnc(N(c2ccccc2)c2ccccc2Cl)nc1)NO [citarinostat]
How it was run: as §1

silmitasertib = compound: O=C(O)c1ccc2c(c1)nc(Nc1cccc(Cl)c1)c1ccncc12 [silmitasertib]
How it was run: as §1

[5] = compound: O=C1NC(=O)C(c2cnc3ccccn23)=C1c1cn2c3c(cc(F)cc13)CN(C(=O)N1CCCCC1)CC2
How it was run: as §1

[6] = compound: c1cc(OCCN2CCCCC2)cc(-c2n[nH]c3ccc(-c4nnc[nH]4)cc23)c1
How it was run: as §1

Target	log2 fold change [1]	log2 fold change [2]	log2 fold change [3]	log2 fold change [4]	log2 fold change (entinostat)	log2 fold change (vorinostat)	log2 fold change (citarinostat)	log2 fold change (silmitasertib)	log2 fold change [5]	log2 fold change [6]
VANGL1 (UniProt Q8TAA9)	inactive: -0.138	inactive: 0.058	inactive: 0.027	inactive: -0.088	inactive: -0.066	inactive: -0.095	inactive: -0.1	inactive: 0.099	inactive: 0.118	inactive: -0.452
UBE3D (UniProt Q7Z6J8)	inactive: -0.019	inactive: 0.012	inactive: -0.004	inactive: 0.027	inactive: 0.074	inactive: 0.056	inactive: 0.012	inactive: 0.067	inactive: -0.032	inactive: -0.164
UBR2 (UniProt Q8IWV8)	inactive: -0.007	inactive: 0.038	inactive: 0.039	inactive: 0.007	inactive: 0.049	inactive: 0.137	inactive: 0.05	inactive: 0.061	inactive: 0.044	inactive: -0.14
VAT1 (UniProt Q99536)	inactive: 0.003	inactive: 0.024	inactive: 0.011	inactive: 0.073	inactive: -0.017	inactive: 0.005	inactive: 0.034	inactive: -0.017	inactive: -0.014	inactive: -0.008
UNC13D isoform 3 (UniProt Q70J99)	inactive: -0.005	inactive: -0.023	inactive: -0.019	inactive: -0.033	inactive: 0.063	inactive: -0.086	inactive: 0.013	inactive: 0.095	inactive: 0.18	inactive: -0.04
UFM1 isoform 2 (UniProt P61960)	inactive: -0.031	inactive: -0.114	inactive: -0.087	inactive: -0.057	inactive: -0.012	inactive: -0.057	inactive: -0.044	inactive: -0.025	inactive: -0.007	inactive: -0.218
UBLCP1 (UniProt Q8WVY7)	inactive: -0.084	inactive: -0.009	inactive: -0.165	inactive: -0.048	inactive: 0.122	inactive: 0	inactive: 0.085	inactive: 0.049	inactive: -0.142	inactive: 0.035
VAMP2 (UniProt P63027)	inactive: 0.225	inactive: 0.259	inactive: -0.008	inactive: 0.061	inactive: 0.163	inactive: 0.091	inactive: 0.148	inactive: 0.015	inactive: 0.169	inactive: 0.117
UBTF (UniProt P17480)	inactive: 0.049	inactive: 0.027	inactive: 0.145		inactive: -0.048	inactive: 0.109		inactive: 0.107		
UBXN4 (UniProt Q92575)	inactive: -0.001	inactive: -0.064	inactive: -0.12	inactive: -0.004	inactive: -0.006	inactive: 0.007	inactive: 0.056	inactive: -0.016	inactive: 0	inactive: -0.018
USF1 (UniProt P22415)	inactive: -0.085	inactive: -0.06	inactive: -0.114	inactive: 0.101	inactive: 0.088	inactive: 0.054		inactive: 0.121	inactive: -0.01	
UQCR10 (UniProt Q9UDW1)	inactive: -0.053	inactive: -0.043	inactive: 0.076	inactive: 0.02	inactive: -0.003	inactive: 0.187	inactive: 0.045	inactive: -0.003	inactive: -0.067	inactive: -0.026
UFC1 (UniProt Q9Y3C8)	inactive: -0.005	inactive: 0.029	inactive: 0.048	inactive: 0.065	inactive: -0.015	inactive: -0.049	inactive: -0.023	inactive: -0.022	inactive: -0.057	inactive: 0.132
UFSP2 (UniProt Q9NUQ7)	inactive: 0.019	inactive: 0.006	inactive: -0.052	inactive: -0.064	inactive: 0.034	inactive: 0.047	inactive: 0.021	inactive: -0.031	inactive: -0.009	inactive: -0.022
UGCG (UniProt Q16739)	inactive: -0.01	inactive: -0.157	inactive: -0.059	inactive: 0.052	inactive: -0.14		inactive: -0.211	inactive: 0.101	inactive: -0.028	inactive: 0.097
UXT isoform 2 (UniProt Q9UBK9)	inactive: -0.041	inactive: -0.067	inactive: -0.108	inactive: -0.011	inactive: 0.004	inactive: 0.047	inactive: 0.129	inactive: -0.033	inactive: -0.051	inactive: 0.007

Target	log2 fold change [1]	log2 fold change [2]	log2 fold change [3]	log2 fold change [4]	log2 fold change (entinostat)	log2 fold change (vorinostat)	log2 fold change (citarinostat)	log2 fold change (silmitasertib)	log2 fold change [5]	log2 fold change [6]
UNC119B (UniProt A6NIH7)	inactive: -0.094	inactive: 0.039	inactive: 0.146	inactive: 0.038	inactive: 0.012	inactive: -0.055	inactive: 0.043	inactive: 0.031		inactive: 0.005
UGDH (UniProt O60701)	inactive: -0.062	inactive: -0.124	inactive: -0.033	inactive: -0.095	inactive: 0.064	inactive: -0.027	inactive: 0.145	inactive: -0.102	active: -0.31	inactive: 0
USP7 (UniProt Q93009)	inactive: -0.039	inactive: -0.062	inactive: -0.263	inactive: -0.07	inactive: 0.097	inactive: 0.182	inactive: 0.096	inactive: -0.028	inactive: -0.037	inactive: 0.046
UBR5 (UniProt O95071)	inactive: -0.005	inactive: -0.047	inactive: 0.002	inactive: -0.014	inactive: 0.036	inactive: 0.017	inactive: 0.018	inactive: 0.14	inactive: 0.036	inactive: -0.141
ULBP1 (UniProt Q9BZM6)	inactive: -0.045	inactive: 0.026	inactive: -0.227	inactive: -0.039	inactive: 0.099			inactive: 0.013	inactive: -0.188	
UQCRQ (UniProt O14949)	inactive: -0.012	inactive: 0.044	inactive: 0.026	inactive: 0.04	inactive: -0.052	inactive: 0.003	inactive: 0.02	inactive: -0.022	inactive: -0.047	inactive: -0.007
UNC93B1 (UniProt Q9H1C4)	inactive: -0.059	inactive: -0.025	inactive: -0.079		inactive: 0.015	inactive: -0.008	inactive: 0.017	inactive: -0.049	inactive: -0.141	inactive: 0.045
USP47 (UniProt Q96K76)	inactive: -0.05	inactive: -0.126	inactive: -0.138	inactive: -0.09	inactive: 0.019	inactive: 0.052	inactive: 0.029	inactive: 0.117	inactive: 0.067	inactive: -0.096
UBQLN4 (UniProt Q9NRR5)	inactive: 0.031	inactive: 0.059	inactive: 0.095	inactive: 0.028	inactive: 0.023	inactive: -0.031	inactive: 0.01	inactive: 0.002	inactive: 0.021	inactive: -0.028
UXS1 isoform 2 (UniProt Q8NBZ7)	inactive: 0.035	inactive: 0.114	inactive: 0	inactive: 0.002	inactive: -0.027		inactive: -0.043	inactive: -0.013	inactive: 0.128	inactive: -0.199
USP20 (UniProt Q9Y2K6)	inactive: -0.11	inactive: 0.005	inactive: -0.106	inactive: 0.214	inactive: 0.165		inactive: 0.229	inactive: 0.154	inactive: -0.011	inactive: 0.161
UGP2 (UniProt C9JWG0)	inactive: -0.097	inactive: -0.052	inactive: -0.08		inactive: -0.117			inactive: 0.142		
UBR1 (UniProt Q8IWV7)	inactive: -0.206	inactive: -0.13	inactive: -0.069		inactive: -0.076	inactive: 0.027		inactive: 0.197	inactive: 0.102	
UBIAD1 (UniProt Q9Y5Z9)	inactive: -0.089	inactive: 0	inactive: 0.055	inactive: -0.122	inactive: -0.076	inactive: -0.075	inactive: -0.301	inactive: 0.013		inactive: 0.181
UNK (UniProt Q9C0B0)	inactive: -0.039	inactive: -0.032	inactive: -0.023	inactive: -0.071	inactive: 0.027	inactive: 0.023	inactive: 0.079	inactive: 0.073		inactive: -0.009
UPF3B (UniProt Q9BZI7)	inactive: 0.092	inactive: 0.11	inactive: 0.315	inactive: 0.096	inactive: -0.079	inactive: 0	inactive: -0.125	inactive: 0.149	inactive: 0.245	inactive: -0.278

Two entries picked at random from those above, as already listed:
Target	log2 fold change [1]	log2 fold change [2]	log2 fold change [3]	log2 fold change [4]	log2 fold change (entinostat)	log2 fold change (vorinostat)	log2 fold change (citarinostat)	log2 fold change (silmitasertib)	log2 fold change [5]	log2 fold change [6]
UQCRQ (UniProt O14949)	inactive: -0.012	inactive: 0.044	inactive: 0.026	inactive: 0.04	inactive: -0.052	inactive: 0.003	inactive: 0.02	inactive: -0.022	inactive: -0.047	inactive: -0.007
UNK (UniProt Q9C0B0)	inactive: -0.039	inactive: -0.032	inactive: -0.023	inactive: -0.071	inactive: 0.027	inactive: 0.023	inactive: 0.079	inactive: 0.073		inactive: -0.009
